These are yes or no findings as the source states them, for the method shown. Binding seen in cells or lysates may run through a third protein. Some entries that bind do so weakly or less than the wild type.
How the values were obtained:
[1] = target: YFP-hDAT (human) (UniProt Q01959); experiment: co-IP
[2] = target: YFP-hNET (human) (UniProt P23975); experiment: co-IP
[3] = target: YFP-hGAT1 (human) (UniProt P30531); experiment: co-IP
[4] = target: GST-hNET-Ct (human) (UniProt P23975); experiment: pull-down
[5] = target: GST-hDAT-Ct (human) (UniProt Q01959); experiment: pull-down

Chains of the proteins cited; added tags and fusions are not shown. Residues count along the entry.
UniProt Q01959, 579-620: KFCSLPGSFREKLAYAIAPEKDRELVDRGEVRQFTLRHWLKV
UniProt Q01959, whole entry: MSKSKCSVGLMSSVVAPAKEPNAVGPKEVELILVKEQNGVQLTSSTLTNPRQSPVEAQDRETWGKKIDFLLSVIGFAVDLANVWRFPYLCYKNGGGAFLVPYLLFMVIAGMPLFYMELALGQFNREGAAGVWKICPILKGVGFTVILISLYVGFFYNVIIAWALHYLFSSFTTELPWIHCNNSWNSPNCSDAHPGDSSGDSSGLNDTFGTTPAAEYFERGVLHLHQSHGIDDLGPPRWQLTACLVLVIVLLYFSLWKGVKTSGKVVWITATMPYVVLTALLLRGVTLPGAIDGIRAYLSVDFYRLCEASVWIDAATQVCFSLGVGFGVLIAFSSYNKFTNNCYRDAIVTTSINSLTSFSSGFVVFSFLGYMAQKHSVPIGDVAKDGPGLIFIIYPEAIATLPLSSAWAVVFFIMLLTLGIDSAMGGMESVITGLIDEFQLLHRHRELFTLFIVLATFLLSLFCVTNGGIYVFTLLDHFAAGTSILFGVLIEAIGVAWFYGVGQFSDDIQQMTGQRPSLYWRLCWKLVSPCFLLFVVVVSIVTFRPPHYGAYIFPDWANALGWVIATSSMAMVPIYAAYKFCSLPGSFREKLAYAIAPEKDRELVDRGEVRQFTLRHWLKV
UniProt P23975, 570-617: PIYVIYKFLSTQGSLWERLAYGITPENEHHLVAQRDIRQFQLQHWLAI
UniProt P23975, whole entry: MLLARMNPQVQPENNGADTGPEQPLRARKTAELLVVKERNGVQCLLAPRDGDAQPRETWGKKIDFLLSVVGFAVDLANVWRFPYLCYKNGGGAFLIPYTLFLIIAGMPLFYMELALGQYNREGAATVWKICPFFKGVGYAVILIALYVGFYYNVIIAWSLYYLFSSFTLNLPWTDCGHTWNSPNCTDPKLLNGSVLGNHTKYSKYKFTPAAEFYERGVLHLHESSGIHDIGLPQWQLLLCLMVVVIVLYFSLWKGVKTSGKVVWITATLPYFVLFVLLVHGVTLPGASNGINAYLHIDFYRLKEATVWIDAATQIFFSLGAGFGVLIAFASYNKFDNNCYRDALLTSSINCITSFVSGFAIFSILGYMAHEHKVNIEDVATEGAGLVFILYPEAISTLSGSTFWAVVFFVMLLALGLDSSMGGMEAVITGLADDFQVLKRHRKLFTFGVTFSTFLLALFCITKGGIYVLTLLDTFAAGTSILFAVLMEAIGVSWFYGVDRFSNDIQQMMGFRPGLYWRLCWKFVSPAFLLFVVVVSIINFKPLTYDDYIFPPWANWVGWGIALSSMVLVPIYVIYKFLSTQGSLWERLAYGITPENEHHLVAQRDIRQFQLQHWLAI
UniProt P30531, whole entry: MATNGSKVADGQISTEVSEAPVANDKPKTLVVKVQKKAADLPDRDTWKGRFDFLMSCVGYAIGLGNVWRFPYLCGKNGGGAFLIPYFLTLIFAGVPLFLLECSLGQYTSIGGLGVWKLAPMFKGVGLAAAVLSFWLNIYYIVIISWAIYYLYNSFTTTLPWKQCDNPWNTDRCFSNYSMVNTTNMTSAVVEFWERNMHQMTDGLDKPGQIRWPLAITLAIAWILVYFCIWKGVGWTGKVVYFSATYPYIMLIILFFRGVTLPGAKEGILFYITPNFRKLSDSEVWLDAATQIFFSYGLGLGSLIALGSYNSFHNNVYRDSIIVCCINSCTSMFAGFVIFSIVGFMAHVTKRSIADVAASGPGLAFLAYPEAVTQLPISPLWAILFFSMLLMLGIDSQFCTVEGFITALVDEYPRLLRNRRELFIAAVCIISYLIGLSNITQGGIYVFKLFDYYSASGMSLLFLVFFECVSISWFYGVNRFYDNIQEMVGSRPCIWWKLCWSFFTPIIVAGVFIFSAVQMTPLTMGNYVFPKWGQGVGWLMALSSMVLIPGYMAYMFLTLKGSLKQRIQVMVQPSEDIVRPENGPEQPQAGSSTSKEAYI

binding [1]: binds
binding [2]: binds
binding [3]: binds
binding [4]: binds
binding [5]: binds
B1: p31^COMET (protein, UniProt Q15013 1-274)
chain: MAAPEAEVLSSAAVPDLEWYEKSEETHASQIELLETSSTQEPLNASEAFCPRDCMVPVVFPGPVSQEGCCQFTCELLKHIMYQRQQLPLPYEQLKHFYRKPSPQAEEMLKKKPRATTEVSSRKCQQALAELESVLSHLEDFFARTLVPRVLILLGGNALSPKEFYELDLSLLAPYSVDQSLSTAACLRRLFRAIFMADAFSELQAPPLMGTVVMAQGHRNCGEDWFRPKLNYRVPSRGHKLTVTLSCGRPSIRTTAWEDYIWFQAPVTFKGFRE

— paper doi:10.1101/2021.06.09.447721
